This is one part of the list. Single values are uncertain here, since repeats match poorly.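 Human embryonic kidney cells were transiently transfected with a plasmid bearing a Renilla luciferase gene under the HSV-TK promoter. This first-round screen tests roughly ten thousand compounds for ones that increase reporter output.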
The molecules below were run on HEK 293FT (assay: log relative Renilla luciferase luminescence (reporter expression vs reference, reference not stated) (log (base not stated)); higher = higher recombinant reporter expression). Conditions: 10 µM; time after transfection 48 h.
Description: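 HEK 293FT cells transiently transfected with pRL-TK (Renilla luciferase) were treated with compounds at 10 uM and luminescence was read about 42 h later. Values are log relative Renilla luminescence (log base and reference not stated). Single-pass screen; 2080 natural products library.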

| SMILES | log |
| --- | --- |
| COC(=O)[C@H]1[C@H]2C[C@@H]3c4[nH]c5ccccc5c4CCN3C[C@H]2CC[C@@H]1O [Isorauhimbine] | -0.00447 |
| COc1cc(/C=C/C=O)ccc1O [Coniferaldehyde] | 0.122 |
| CC(=O)Oc1cc(OC(C)=O)c2c(c1)OC(c1ccccc1)CC2=O (stereo not given) [Pinocembrin diacetate] | -0.262 |
| COc1c(O)cc(O)c2c(=O)cc(-c3ccccc3)oc12 [Wogonin] | 0.012 |
| C=C(C)[C@@H]1CC[C@]2(C)[C@H](CC[C@@H]3[C@@H]([C@]4(C)CCC(=O)O4)CC[C@]32C)[C@@]1(C)CCC(=O)O [Eichlerialactone] | -0.2 |
| CC1C(O)CC2C(CO)C(=O)OCC12 (stereo not given) [Alyxialactone] | 0.0528 |
| C=C1[C@@H]2CC[C@@H]3[C@](C2)(C(=O)OC[C@]32[C@@H]3CC[C@@]4(C)CO[C@H](O3)[C@H]42)[C@@H]1O [Sculponeatin K] | -0.212 |
| C=C1[C@H]2CC[C@@]3([C@H]4C[C@H]5[C@@]6(CCC[C@@]5(C)C(=O)OC6O4)[C@@H]3C2)[C@H]1O [Spiramilactone B] | 0.0016 |
| CCCCCCCCCCCCCCCC(=O)O[C@H]1CC[C@]2(C)[C@H]3CC=C4[C@@H]5CC(C)(C)CC[C@]5(C)CC[C@@]4(C)[C@]3(C)CC[C@H]2C1(C)C [beta-Amyrin palmitate] | 0.152 |
| OC[C@@H](O)[C@@H](O)[C@@H](O)[C@@H](O)CO [Allitol] | 0.771 |
| CC1=C(C(=O)O)C(C)(C)CC(O)C1 (stereo not given) [4-Hydroxy-2,6,6-trimethyl-1-cyclohexenecarboxylic acid] | -0.184 |
| Oc1cc(O)cc(/C=C/c2ccccc2)c1 [Pinosylvin] | -0.127 |
| O=C(O)C1=CO[C@@H](O[C@@H]2O[C@H](CO)[C@@H](O)[C@H](O)[C@H]2O)[C@@H]2C(CO)=CC[C@H]12 [Geniposidic acid] | -0.227 |
| COc1ccc(O[C@@H]2O[C@H](CO)[C@@H](O)[C@H](O)[C@H]2O)cc1OC [3,4-Dimethoxyphenyl beta-D-glucoside] | -0.0867 |
| C[C@H](CC[C@H](O)[C@](C)(O)CO)[C@H]1CC[C@@]2(C)C3=CC[C@H]4C(C)(C)C(=O)CC[C@]4(C)C3=CC[C@]12C [Ganodermanontriol] | -0.29 |
| Oc1ccc(-c2oc3cc(O)cc4c3c2-c2cc(O)cc3c2[C@H](c2cc(O)cc5c2[C@@H]4[C@H](c2ccc(O)cc2)O5)[C@@H](c2ccc(O)cc2)O3)cc1 [Caraphenol A] | -0.163 |
| CC(=O)O[C@H]1C[C@H]2C(=CC[C@@H]3[C@]2(C)CCC[C@@]3(C)C(=O)O)C=C1C(C)C [12-Acetoxyabietic acid] | -0.0137 |
| C[C@@H]1CC[C@]2(C(=O)O)CC[C@]3(C)C(=CC[C@@H]4[C@@]5(C)C[C@@H](O)[C@@H](O)C(C)(C)[C@@H]5CC[C@]43C)[C@@H]2[C@]1(C)O [Euscaphic acid] | -0.341 |
| C=C1CCC2OC2(C)CC[C@@H]2[C@@H]1OC(=O)C2(C)C (stereo not given in full) [Epoxyparvinolide] | -0.121 |
| CC(=O)O[C@H]1C[C@@]2(O)[C@@H](OC(C)=O)[C@@H]3[C@]4(OC(C)=O)CO[C@@H]4C[C@H](OC(C)=O)[C@@]3(C)[C@@H](OC(C)=O)[C@H](OC(C)=O)C(=C1C)C2(C)C [Baccatin IV] | -0.0805 |

| SMILES | log |
| --- | --- |
| Cc1cccc2c1ccc1c3occ(C)c3oc(=O)c21 [Tanshinlactone] | -0.166 |
| CC=Cc1ccc2c(c1)C(C)C(c1ccc(OC(C)=O)cc1)O2 (single isomer, unassigned; (+)) [(+)-Conocarpan acetate] | -0.181 |
| CCCCCCCCCCCCCCCCCCCCCCOC(=O)/C=C/c1ccc(O)c(O)c1 [Docosyl caffeate] | -0.341 |
| CC1=CCC[C@H]2[C@@]1(C)[C@@H](OC(=O)c1cccnc1)[C@H](OC(=O)c1cccnc1)[C@](C)(O)[C@]2(C)/C=C/C1=CC(=O)OC1 [Scutebarbatine A] | 0.177 |
| CC1(C)O[C@H]2CC(=O)OC[C@]23[C@H]2CC[C@@]4(C)[C@@H](c5ccoc5)OC(=O)[C@H]5O[C@]54[C@]2(C)[C@H](O)C[C@@H]13 [Limonol] | -0.125 |
| CC1(C)O[C@H]2CC(=O)OC[C@]23[C@H]2CC[C@@]4(C)[C@H](C5=CC(=O)OC5O)OC(=O)[C@H]5O[C@]54[C@]2(C)C(=O)C[C@@H]13 (stereo not given in full) [Limonexic acid] | 0.766 |
| COc1cc(O)c2c(=O)cc(-c3ccc(O)cc3)oc2c1 [Genkwanin] | 0.0179 |
| Cc1cccc2c3c(ccc12)C1=C(C(=O)C3=O)[C@@H](C)CO1 [15,16-Dihydrotanshinone I] | -0.2 |
| COc1ccc(-c2oc3cc(OC)c(OC)c(O)c3c(=O)c2OC)cc1OC [Artemetin] | -0.348 |
| CC[C@H](CC[C@@H](C)[C@H]1CC[C@H]2[C@@H]3[C@H](O)C=C4C[C@@H](O)CC[C@]4(C)[C@H]3CC[C@]12C)C(C)C [Ikshusterol] | 0.0647 |
| CC[C@H](/C=C/[C@@H](C)[C@H]1CC[C@H]2[C@@H]3CCC4=CC(=O)CC[C@]4(C)[C@H]3CC[C@]12C)C(C)C [Stigmasta-4,22-dien-3-one] | -0.138 |
| COC(=O)[C@]12CC[C@]34CCCN5C[C@H](C(=O)C3)[C@@]1(c1ccccc1N2)[C@@H]54 [Methyl demethoxycarbonylchanofruticosinate] | 0.162 |
| CC(C)(O)[C@H]1CC[C@@](C)([C@H]2CC[C@]3(C)[C@@H]2[C@H](O)C[C@@H]2[C@@]4(C)CCC(=O)C(C)(C)[C@@H]4CC[C@]23C)O1 [20S,24R-Epoxy-dammar-12,25-diol-3-one] | -0.0473 |
| COc1c(O)cc(CC2(O)Oc3cc(O)cc(O)c3C2=O)cc1O (stereo not given) [Amaronol B] | 0.16 |
| COc1cc(OC)c2ccc(=O)oc2c1OC [5,7,8-Trimethoxycoumarin] | -0.174 |
| C[C@@H]1C[C@H]2O[C@@]3(O[C@@H]2C(C)(C)O)[C@H](O)[C@@]2(C)[C@@H]4CC[C@H]5C(C)(C)[C@@H](O[C@@H]6OC[C@@H](O)[C@H](O)[C@H]6O)CC[C@@]56C[C@@]46CC[C@]2(C)[C@@H]13 [Cimigenoside] | 0.0514 |
| O=c1ccc2ccc(O)cc2o1 [Umbelliferone] | -0.619 |
| COc1c(OC)c2occc2c2oc(=O)ccc12 [Pimpinellin] | 0.085 |
| COc1ccc(CCCO)cc1O [3-Hydroxy-4-methoxy-benzenepropanol] | -0.43 |
| CC(C)(Cl)C(O)COc1c2occc2cc2ccc(=O)oc12 (stereo not given) [Isosaxalin] | -0.0232 |

Arranged by heavy-atom count (descending): some entries from above

| SMILES | log |
| --- | --- |
| Oc1ccc(-c2oc3cc(O)cc4c3c2-c2cc(O)cc3c2[C@H](c2cc(O)cc5c2[C@@H]4[C@H](c2ccc(O)cc2)O5)[C@@H](c2ccc(O)cc2)O3)cc1 [Caraphenol A] | -0.163 |
| CC1(C)O[C@H]2CC(=O)OC[C@]23[C@H]2CC[C@@]4(C)[C@H](C5=CC(=O)OC5O)OC(=O)[C@H]5O[C@]54[C@]2(C)C(=O)C[C@@H]13 (stereo not given in full) [Limonexic acid] | 0.766 |
| CCCCCCCCCCCCCCCCCCCCCCOC(=O)/C=C/c1ccc(O)c(O)c1 [Docosyl caffeate] | -0.341 |
| COC(=O)[C@H]1[C@H]2C[C@@H]3c4[nH]c5ccccc5c4CCN3C[C@H]2CC[C@@H]1O [Isorauhimbine] | -0.00447 |
| C=C1[C@H]2CC[C@@]3([C@H]4C[C@H]5[C@@]6(CCC[C@@]5(C)C(=O)OC6O4)[C@@H]3C2)[C@H]1O [Spiramilactone B] | 0.0016 |
| COc1ccc(O[C@@H]2O[C@H](CO)[C@@H](O)[C@H](O)[C@H]2O)cc1OC [3,4-Dimethoxyphenyl beta-D-glucoside] | -0.0867 |
| COc1c(O)cc(O)c2c(=O)cc(-c3ccccc3)oc12 [Wogonin] | 0.012 |
| COc1cc(OC)c2ccc(=O)oc2c1OC [5,7,8-Trimethoxycoumarin] | -0.174 |
| Oc1cc(O)cc(/C=C/c2ccccc2)c1 [Pinosylvin] | -0.127 |
